Laboratory results published in PubChem BioAssay AID2685 (National Center for Advancing Translational Sciences (NCATS), 2010).
This is one part of the list. Further columns of the screen follow, without active or inactive calls. Most of these compounds were active or inconclusive in the main read-out, so they are no random draw. Potencies come from curve fits of mixed quality, noted in brackets.

Test: qHTS Assay for Lipid Storage Modulators in Drosophila S3 Cells;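 on cell number change: cells counted by Cell Tracker Red CMTPX staining in the red channel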
Conditions: BODIPY lipid droplet fluorescence, 18-24 h; for cell number change: measured here: cell count max response, cells fed with added oleic acid
Outline: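 Laser-scanning cytometry quantifies lipid droplet accumulation (500–530 nm total intensity; droplet/cell object ratio) in oleic acid-fed (400 uM added) Drosophila S3 cells treated with a concentration series. 20 uM Triacsin C defined 100% inhibition.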

[1] = measured here: cell number channel AC50, cells fed with added oleic acid
[2] = measured here: lipid fluorescence (Fed channel) AC50, cells fed with added oleic acid

CC(=O)c1c(C)[nH]c(C(=O)Nc2ccc(F)cc2F)c1C
cell number change: -12.5% | AC50 [1]: 2.31 µM [falling, partial curve]

CC(=O)Nc1ccc(S(=O)(=O)NCC2CCC(C(=O)NC(C)c3ccc4c(c3)OCCO4)CC2)cc1 (centres undefined)
cell number change: 5.64%

CCCN(CC(=O)Nc1ccc(F)c(F)c1F)C(=O)C1CC(=O)N(Cc2ccccc2)C1 (centres undefined)
AC50 [2]: 20.6 µM [rising, single point]

O=C(CN1C(=O)C2CCCCC2C1=O)OCC(=O)c1ccc(F)cc1 (centres undefined)
cell number change: 2.84% | AC50 [1]: 0.103 µM [rising, full curve, poor fit] | AC50 [2]: 6.51 µM [rising, single point]

COc1ccc(-c2noc(CCCC(=O)NC3CCCC3)n2)cc1
cell number change: 1.28%

COc1ccc(S(=O)(=O)N2CCN(C(=O)c3cccs3)CC2)cc1
cell number change: 5.7% | AC50 [2]: 9.2 µM [rising, single point]

CCCCOC(=O)c1[nH]c2c(c1C)C(=O)CC(c1cc(OC)c(OC)c(OC)c1)C2 (centres undefined)
AC50 [1]: 0.92 µM [rising, partial curve] | AC50 [2]: 1.3 µM [rising, partial curve]

COc1ccccc1OP(=O)(O)Oc1ccccc1OC
cell number change: -44.3% | AC50 [1]: 29.1 µM [falling, partial curve, poor fit]

CCOC(=O)CCNC(C(=O)OCC)c1ccccc1 (centres undefined)
cell number change: -40% | AC50 [1]: 25.9 µM [falling, single point] | AC50 [2]: 23.1 µM [falling, partial curve]

Cc1cc(C)cc(OCC(=O)Nc2ccc(-n3cnnn3)cc2)c1
cell number change: -7.91% | AC50 [2]: 7.31 µM [rising, partial curve, poor fit]

COc1ccc(NC(=O)NCCCN2CCCC2=O)cc1
cell number change: -9.68% | AC50 [2]: 16.4 µM [falling, partial curve, poor fit]

CCc1ccc(N2CN(CCc3ccccc3)CNC2=S)cc1
cell number change: 4.04% | AC50 [2]: 0.651 µM [falling, single point]

CNC(=S)NNC(=O)c1sccc1OCc1ccccc1
cell number change: 137% | AC50 [1]: 23.1 µM [rising, single point]

CCS(=O)(=O)N1Cc2ccccc2CC1C(=O)Nc1nc2ccc(C)cc2s1 (centres undefined)
cell number change: -66.7% | AC50 [2]: 1.3 µM [rising, full curve]

Cc1ccc(S(=O)(=O)n2nc(OC(=O)c3ccccc3C)cc2N)cc1
cell number change: 8.33%

CC(C)Cn1c(SCC(=O)N2CCN(C(=O)c3ccco3)CC2)nc2ccccc2c1=O
cell number change: 54.6% | AC50 [2]: 3.26 µM [rising, single point]

COc1cc2c(-c3ccc(O)cc3)nc3c(c(C)nn3-c3ccccc3)c2cc1OC
cell number change: -31.7% | AC50 [1]: 29.1 µM [falling, single point] | AC50 [2]: 7.31 µM [falling, partial curve, poor fit]

N#Cc1ccc(S(=O)(=O)NCC(=O)OCC(=O)NCCc2ccccc2)cc1
cell number change: 38.3% | AC50 [1]: 18.4 µM [rising, partial curve, poor fit]

O=C(CCn1nnc2ccccc21)Nc1nnc(-c2ccccc2F)s1
cell number change: -9.29%

COc1cccc(C(=O)O/N=C(\N)c2ccccn2)c1
cell number change: 46% | AC50 [1]: 8.2 µM [rising, partial curve, poor fit]

CCN(CC)CCNC(=O)NC1CCCCC1
cell number change: -16.7% | AC50 [2]: 5.17 µM [falling, full curve]

CCCCN(CC)S(=O)(=O)c1ccc(C(=O)Nc2nnc(-c3ccccc3Cl)o2)cc1
AC50 [1]: 1.46 µM [rising, partial curve] | AC50 [2]: 1.3 µM [rising, full curve]

Cc1cnc(NC(=O)CN2C(=O)C3CC=CCC3C2=O)s1 (centres undefined)
cell number change: 3.41%

O=C(NCc1cccnc1)/C(=C\c1ccc(-c2ccc(Cl)c(Cl)c2)o1)S(=O)(=O)c1ccccc1
cell number change: -54.8% | AC50 [1]: 18.4 µM [falling, single point] | AC50 [2]: 0.13 µM [falling, full curve, poor fit]

O=C(Nc1nnc(S(=O)(=O)N2CCCCCC2)s1)c1ccccc1Cl
cell number change: 9.28% | AC50 [2]: 6.51 µM [falling, single point]

Cc1cccc(NC(=S)NC(=O)C2CC2)c1
cell number change: -5.78% | AC50 [2]: 2.31 µM [falling, full curve, poor fit]

O=C(COC(=O)C12CC3CC(CC(Br)(C3)C1)C2)Nc1cccnc1Cl
cell number change: 45.1% | AC50 [1]: 0.82 µM [rising, full curve] | AC50 [2]: 5.8 µM [rising, partial curve]

COc1ccc(N2C(=O)C3CCCN3C2c2cccc(OC)c2)cc1 (centres undefined)
cell number change: 10.8%

COc1cc2c(cc1OC)C(COc1ccccc1OC)N(C(=O)C(C)(C)C)CC2 (centres undefined)
cell number change: -60.4% | AC50 [1]: 0.326 µM [falling, full curve] | AC50 [2]: 8.2 µM [falling, partial curve]

CC(=O)Nc1ccccc1C(=O)N1CC(C)OC(C)C1 (centres undefined)
cell number change: -16.9% | AC50 [2]: 2.59 µM [falling, full curve, poor fit]

COc1ccc(C(CNC(=O)c2ccc(S(=O)(=O)Nc3ccccc3F)cc2)N(C)C)cc1 (centres undefined)
cell number change: 1.08%

COc1cc(C(=S)N(C)C)ccc1O
cell number change: -100% | AC50 [1]: 25.9 µM [falling, partial curve] | AC50 [2]: 23.1 µM [falling, partial curve]

NC(=O)C1CCN(Cc2nc3ccccc3c(=O)[nH]2)CC1
cell number change: 3.96% | AC50 [2]: 23.1 µM [falling, partial curve]

Cn1c(C(=O)NCCN2CCc3ccccc3C2)cc2c(=O)[nH]c3ccccc3c21
cell number change: -25.7% | AC50 [2]: 29.1 µM [falling, single point]

CC1CCC/C(=C\Nc2ccc(C(=O)O)c(O)c2)C1=O (centres undefined)
cell number change: 12.3%

O=C(O)CN(C1CCCCC1)S(=O)(=O)c1ccc(F)cc1
cell number change: -26.1% | AC50 [1]: 1.3 µM [falling, full curve, poor fit] | AC50 [2]: 0.517 µM [falling, full curve]

COc1ccc(O)c(/C=N/NC(=O)c2ccc(N3CCCC3=O)cc2)c1
cell number change: 6.67%

CCN1CCN(c2nc3c(c(=O)[nH]c(=O)n3C)n2CCSc2nc3ccccc3s2)CC1
AC50 [2]: 2.06 µM [rising, single point]

CCOC(=O)c1csc(NC(=O)c2ccccc2)n1
cell number change: -13%

COc1ccc(-c2noc(CSc3nnc(Cc4ccccc4)n3-c3ccc(Cl)cc3)n2)cc1
cell number change: 150% | AC50 [1]: 16.4 µM [rising, partial curve] | AC50 [2]: 10.3 µM [rising, partial curve]

COc1cc2c(cc1OC)CN(C(=O)c1sc(-c3cnccn3)nc1C)CC2
cell number change: 24% | AC50 [2]: 0.517 µM [rising, partial curve, poor fit]

CC1(C(=O)Nc2cccc(S(=O)(=O)N3CCOCC3)c2)Cc2ccccc2C(=O)O1 (centres undefined)
cell number change: 51.8%

O=c1c2cc(NC(=S)N3CCCC3)ccc2nc2n1CCCCC2
AC50 [1]: 6.51 µM [rising, partial curve, poor fit]

Cc1ccccc1NC(=O)CC(O)(C(F)(F)F)C(F)(F)F
AC50 [1]: 1.3 µM [rising, partial curve]

CCCSc1nc(N)c(C#N)c(-c2ccc(C)cc2)c1C#N
AC50 [1]: 6.51 µM [rising, single point]

Cc1ccccc1NS(=O)(=O)c1cccc(C(=O)Nc2cccc(C(=O)O)c2)c1
cell number change: 23.8%

CCN(Cc1cc(=O)oc2cc(C)ccc12)c1ccccc1
cell number change: -15.9% | AC50 [2]: 29.1 µM [falling, single point]

COc1ccc([C@@H]2CC=C(C(=O)O)[C@H](c3ccccc3)N2S(=O)(=O)c2ccccc2C)cc1
cell number change: 22% | AC50 [2]: 29.1 µM [rising, single point]

Cc1cc(C(F)(F)F)nc(SCC(=O)Nc2c(C)n(C)n(-c3ccccc3)c2=O)n1
cell number change: 10.8% | AC50 [2]: 1.16 µM [falling, single point]

CC1CCCC(C)N1/N=C/c1ccccc1C(=O)O (centres undefined)
cell number change: -98.6%

CC1Cc2ccccc2N1C(=O)CCNS(=O)(=O)c1cccc2nsnc12 (centres undefined)
cell number change: 25.6% | AC50 [2]: 8.2 µM [rising, partial curve, poor fit]

CC(=O)Nc1ccc(S(=O)(=O)NCc2ccc(C(=O)NCc3ccc(Cl)cc3)cc2)cc1
cell number change: 47.9% | AC50 [1]: 8.2 µM [rising, partial curve, poor fit] | AC50 [2]: 6.51 µM [falling, single point]

COCCN(CC1CCCN(C2Cc3ccccc3C2)C1)C(=O)CSC (centres undefined)
cell number change: 14.2%

CCC(NS(=O)(=O)c1cnn(CC)c1)c1ccccc1 (centres undefined)
cell number change: -9.01% | AC50 [2]: 5.17 µM [falling, full curve, poor fit]

O=C(O)COn1c(-c2ccc(Cl)cc2)nc2ccc(Cl)cc21
cell number change: 9.24% | AC50 [2]: 29.1 µM [falling, partial curve]

O=C(NCC(=O)N(c1ccc(F)cc1)C(C(=O)NC1CCCCC1)c1cccnc1)c1ccco1 (centres undefined)
cell number change: 5.83% | AC50 [2]: 8.2 µM [rising, partial curve]

Cn1cc(/C=C(\C#N)C(=O)Nc2ncc(Cc3ccc(Cl)cc3)s2)c2ccccc21
cell number change: -6.54% | AC50 [1]: 0.103 µM [rising, full curve, poor fit] | AC50 [2]: 2.06 µM [rising, partial curve]

COc1ccc(CNC(=O)C(C)N(C)Cc2cccc(F)c2)cc1 (centres undefined)
cell number change: 31.9% | AC50 [1]: 13 µM [rising, partial curve, poor fit] | AC50 [2]: 8.2 µM [rising, partial curve]

CCNS(=O)(=O)c1ccc(OC)c(C)c1
cell number change: 6.34% | AC50 [2]: 16.4 µM [rising, partial curve, poor fit]

CC1=CN2C(=N)/C(=C/c3ccc(Sc4ccc(C)cc4)o3)C(=O)N=C2S1
cell number change: 31.1% | AC50 [1]: 6.51 µM [rising, partial curve] | AC50 [2]: 29.1 µM [rising, single point]
